# Data taken from PMC12670160, “A drug-repurposing screen of FDA- and EMA-approved drugs identifies two NF-κB inhibitors active against eumycetoma” (Journal of Antimicrobial Chemotherapy, 2025).
# Counter-ions that a name gives are not always drawn. In all, about 5,300 compounds went through this assay and about 130 (2.5%) showed an effect of 50% or more. This is one part of the list. Bridge positions count the residues as written; N and C are the ends. Square brackets hold non-standard residues; d marks the D form. Peptide text beside a SMILES is read from it. hArg = N=C(N)NCCCC[CH](N)C(=O)O; Mpa = O=C(O)CCS
# Tested on: M. mycetomatis strain mm55
# Conditions: primary screen, metabolic activity vs growth control; 96 h, 2 µM; inhibitor
row,Structure (SMILES),% viability [%]
1,"CCC(=O)O[C@]1(C(=O)CCl)[C@@H](C)C[C@H]2[C@@H]3CCC4=CC(=O)C=C[C@]4(C)[C@@]3(F)[C@@H](O)C[C@@]21C [ONC0002120, clobetasolpropionate]",104.9
2,"O=C1C[C@@H](c2ccc(O)cc2)Oc2cc(O)cc(O)c21 [ONC0005207, naringenin]",125.4
3,"COc1cc2nc(N3CCN(C(=O)C(C)OC)CC3)nc(N)c2cc1OC (stereo not shown) [ONC0005626, metazosin]",74.99
4,"COc1ccc(OC)c(C2C(C#N)=C(N)Oc3[nH]nc(-c4ccc5ccccc5c4)c32)c1 (stereo not shown) [ONC0001020, rbc8]",97.4
5,"c1ccc([C@H]2CN3CCSC3=N2)cc1 [ONC0002841, levamisole hydrochloride]",88.45
6,"O=S(=O)(O)c1cc(O)ccc1O [ONC0004826, ethamsylate]",62.39
7,"CC(O)COC[C@H]1O[C@@H]2O[C@H]3[C@H](O)[C@@H](O)[C@@H](O[C@H]4[C@H](O)[C@@H](O)[C@@H](O[C@H]5[C@H](O)[C@@H](O)[C@@H](O[C@H]6[C@H](O)[C@@H](O)[C@@H](O[C@H]7[C@H](O)[C@@H](O)[C@@H](O[C@H]8[C@H](O)[C@@H](O)[C@@H](O[C@H]1[C@H](O)[C@H]2O)O[C@@H]8COCC(C)O)O[C@@H]7COCC(C)O)O[C@@H]6COCC(C)O)O[C@@H]5COCC(C)O)O[C@@H]4COCC(C)O)O[C@@H]3COCC(C)O (stereo partly shown) [ONC0003826, hydroxypropylbetacyclodextrin]",73.6
8,"Cc1c(O)c(=O)ccn1C [ONC0004308, deferiprone]",66.82
9,"Cc1ccc([N+](=O)[O-])cc1S(=O)(=O)N(C)C [ONC0001713, brl50481]",59.63
10,"CC(=O)O[C@]1(C(C)=O)CCC2C3C[C@H](C)C4=CC(=O)CC[C@]4(C)C3CC[C@@]21C (stereo partly shown) [ONC0000456, medroxyprogesterone acetate]",83.76
11,"C[C@H]1CNCCCN1S(=O)(=O)c1cccc2cncc(F)c12 [ONC0002046, ripasudil]",63.17
12,"CCCc1c(OCC(O)COc2ccc3c(=O)cc(C(=O)O)oc3c2CCC)ccc(C(C)=O)c1O (stereo not shown) [ONC0003060, fpl55712]",135.5
13,"CC(C)NCC(O)c1ccc2ccccc2c1 (stereo not shown) [ONC0002423, pronetalol hydrochloride]",84.34
14,"O=C(O)c1cc(-c2ccccc2)nc2ccccc12 [ONC0004274, cinchophen]",82.36
15,"CC1=C[C@H](O)CC(C)(C)[C@H]1/C=C/C(C)=C/C=C/C(C)=C/C=C/C=C(C)/C=C/C=C(C)/C=C/C1=C(C)C[C@@H](O)CC1(C)C [ONC0005587, lutein]",92.5
16,"CCc1nc2c(C)nc(C)cc2n1-c1ccc(CCNC(=O)NS(=O)(=O)c2ccc(C)cc2)cc1 [ONC0001355, grapiprant]",113.8
17,"Cc1ccc2[nH]c(=O)c(C3=NN(C(=O)CCC(=O)O)C(c4ccc(Br)cc4)C3)c(-c3ccccc3)c2c1 (stereo not shown) [ONC0000391, dqp1105]",69.74
18,"O=C(NCCN1CCC2(CC1)C(=O)NCN2c1cccc(F)c1)c1ccc(F)c(F)c1 [ONC0004390, ml298]",135.4
19,"N=C(N)NCCCC[C@@H]1NC(=O)CCSSC[C@@H](C(N)=O)NC(=O)[C@@H]2CCCN2C(=O)[C@H](Cc2c[nH]c3ccccc23)NC(=O)[C@H](CC(=O)O)NC(=O)CNC1=O [ONC0003468, eptifibatide] ([Mpa][hArg]GDWPC-NH2; disulfide 1-7; configuration not given here)",84.45
20,"CCn1c(=O)c(-c2cc[nH]n2)cc2c(C)nc(N)nc21 [ONC0001056, voxtalisib]",91.92
21,"COc1cc2c(cc1-c1c(C)noc1C)ncc1[nH]c(=O)n([C@H](C)c3ccccn3)c12 [ONC0004556, ibet151 gsk1210151a]",61.32
22,"CN(C)c1nc(N(C)C)nc(N(C)C)n1 [ONC0002834, altretamine]",101.7
23,"N[C@H](C(=O)O)[C@H](O)c1ccc(O)c(O)c1 [ONC0004609, droxidopa ldops]",70.92
24,"O=C(OC(C(F)(F)F)C(F)(F)F)N1CCN(Cc2cccc(Oc3ccccc3)c2)CC1 [ONC0000369, jw642]",58.25
25,"Cc1ccc(S(=O)(=O)N2CCC[C@H]2c2ccc(F)cc2)cc1 [ONC0002650, ro677476]",94.08
26,"N#Cc1c(N)nc(SCC(N)=O)c(C#N)c1-c1ccc(OCC2CC2)cc1 [ONC0002661, bay606583]",66.72
27,"COc1cc([C@@H]2c3cc4c(cc3[C@@H](O[C@@H]3O[C@@H]5CO[C@@H](C)O[C@H]5[C@H](O)[C@H]3O)[C@H]3COC(=O)[C@H]23)OCO4)cc(OC)c1O [ONC0001024, etoposide]",91.87
28,"O=[N+]([O-])c1cccc2cn[nH]c12 [ONC0002478, 7nitroindazole]",54.78

# A section taken from the entries so far:
row,Structure (SMILES),% viability [%]
13,"CC(C)NCC(O)c1ccc2ccccc2c1 (stereo not shown) [ONC0002423, pronetalol hydrochloride]",84.34
14,"O=C(O)c1cc(-c2ccccc2)nc2ccccc12 [ONC0004274, cinchophen]",82.36

# The results go on:

row,Structure (SMILES),% viability [%]
1,"COc1ccccc1OCC(O)CN1CCN(CC(=O)Nc2c(C)cccc2C)CC1 (stereo not shown) [ONC0004190, ranolazine dihydrochloride]",156.1
2,"O=C1c2ccc(Nc3ccc(F)cc3F)cc2CCc2ccc(OC[C@H](O)CO)cc21 [ONC0005139, skepinonel]",82.58
3,"O=C(O)/C=C\c1c[nH]cn1 [ONC0002668, cisurocanic acid]",45.73
5,"CC[C@@]1(O)C(=O)OCc2c1cc1n(c2=O)Cc2cc3c(N)cccc3nc2-1 [ONC0005467, 9aminocamptothecin]",102.4
6,"O=C(Oc1ccc(Br)cc1)N1CCN2CCC1CC2 [ONC0001306, ssr180711]",70.31
7,"CCn1cc(-c2cccc(C(F)(F)F)c2)c2sc(C(=N)NC3CCS(=O)(=O)CC3)cc2c1=O [ONC0001085, ibrd9]",45.4
8,"CCCCCCOC(=O)CCC(=O)CN [ONC0001190, hexaminolevulinate hydrochloride]",109.5
9,"COc1ccc(/C=C/CCCCOc2ccc(C(=O)c3cccc(C(=O)O)c3)cc2CCC(=O)O)cc1 [ONC0003815, ly223982]",21.75
10,"CO/N=C(\C(=O)N[C@@H]1C(=O)N2C(C(=O)OCOC(=O)C(C)(C)C)=C(C)CS[C@H]12)c1csc(N)n1 [ONC0002071, cefetamet pivoxil hydrochloride]",73.19
11,"O=C(O)c1cc(C(=O)O)c(C(=O)N(Cc2cccc(Oc3ccccc3)c2)[C@H]2CCCc3ccccc32)cc1C(=O)O [ONC0002107, a317491]",79.8
12,"CS(=O)(=O)OCOS(C)(=O)=O [ONC0003724, mdms]",108.7
13,"CNC(=O)ON(C(C)=O)C(=O)NC [ONC0003740, caracemide]",136.5
14,"C[C@H]1C[C@@H]2[C@H]([C@@H](O)C[C@@]3(C)[C@H]2CC[C@]3(O)C(=O)CO)[C@@]2(C)C=CC(=O)C=C12 [ONC0000373, methylprednisolone]",59.2
15,"CC[C@@H](C)Nc1cc(C(=O)NC2CC3CCC(C2)N3c2ccc(C(=O)C3CC3)cn2)c(C)cc1C(N)=O (stereo partly shown) [ONC0005023, xl888]",77.27
16,"N=C(N)c1ccc2cc(OC(=O)c3ccc(N=C(N)N)cc3)ccc2c1 [ONC0004901, nafamostat mesylate]",82.85
17,"O=C(O)/C=C/c1ccc(O)cc1 [ONC0002170, naringeninicacid]",62.68
18,"CC1CCN(C(c2ccc(F)cc2)c2ccc(C(C)C(=O)O)cc2-c2ccc(C(F)(F)F)cc2)CC1 (stereo not shown) [ONC0002784, tce5006]",116.6
19,"CCCCc1nc(Cl)c(CO)n1Cc1ccc(-c2ccccc2-c2nn[nH]n2)cc1 [ONC0002965, losartan]",77.45
20,"CNCC(O)c1ccc(OC(=O)C(C)(C)C)c(OC(=O)C(C)(C)C)c1 (stereo not shown) [ONC0002955, dipivefrine]",115.4
21,"CN(C)c1cc(CNCC(C)(C)C)c(O)c2c1C[C@H]1C[C@H]3[C@H](N(C)C)C(O)=C(C(N)=O)C(=O)[C@@]3(O)C(O)=C1C2=O [ONC0002072, omadacycline hydrochloride]",75.84
22,"CCOc1c2c(c(OCC)c3ccccc13)C(=O)N(c1ccc(CC(=O)NS(=O)(=O)c3ccccc3)cc1)C2 [ONC0001689, gw627368]",54.29
23,"CCN(CC)CCc1nc(-c2ccccc2)no1 [ONC0005613, oxolamine citrate]",99.68
24,"Cc1cc(-c2nncc3c(C(C)(C)C)c(OCc4ncnn4C)nn23)no1 [ONC0001442, mrk016]",79.32
25,"CC(C)[C@@H](CN1CC[C@@](C)(c2cccc(O)c2)[C@@H](C)C1)NC(=O)[C@H]1Cc2ccc(O)cc2CN1 [ONC0001323, jdtic dihydrochloride]",64.8
26,"NC(=O)c1nc(F)c[nH]c1=O [ONC0003386, favipiravir]",85.13
27,"CC(C)NC[C@@H](O)COc1cccc2ccccc12 [ONC0002707, propranololr]",75.93
